For at least one compound, name, drawing or mass did not settle the structure.
What was measured:
human T cells [1] = experiment: ConA-induced activation and expansion of human T cells (high-throughput screen); type: cell-based
Experimental: T cell stimulation—For human T cell proliferation assays, peripheral blood lymphocytes were obtained by leukapheresis/elutriation and Miltenyi bead-purified and K562 cells expressing human CD32 were generated as previously described^41. […] PBMCs were labeled with CELLTRACE Violet stain (Invitrogen) according to the manufacturer's instructions and cocultured with loaded K32 cells at a 10:1 T cells:K32 ratio or activated with ConA (2 μg/ml, Sigma). Proliferation of stimulated T cells was determined 7 days later by FACS and Division Index was calculated using FlowJo software.
EC50 values were calculated from normalized percent inhibition data using non-linear curve fitting in PRISM software.

human T cells [2] = experiment: aAPC (anti-CD3/anti-CD28)-induced human T cell proliferation, CELLTRACE; type: cell-based; conditions: 7 days
Experimental: Four plots show proliferation of CD8 cells after 7 days is shown. […] Proliferation of CD8 cells after 7 days is shown. T cell stimulation-For human T cell proliferation assays, peripheral blood lymphocytes were obtained by leukapheresis/elutriation and Miltenyi bead-purified and K562 cells expressing human CD32 were generated as previously described^41. […] were γ-irradiated (100 Gy) and loaded with anti-CD3 (500 ng/ml, clone OKT3; eBioscience) plus anti-CD28 (500 ng/ml, clone 15E8; EMD Millipore) antibodies at room temperature for 10 minutes. PBMCs were labeled with CELLTRACE Violet stain (Invitrogen) according to the manufacturer's instructions and cocultured with loaded […] cells at a 10:1 T cells:[…] ratio or activated with ConA (2 μg/ml, Sigma). Proliferation of stimulated T cells was determined 7 days later by FACS and Division Index was calculated using FlowJo software.

OT-I T cells = experiment: In vivo OT-I proliferation in ID8-OVA tumor-bearing mice; parameters: species or system mouse; conditions: after 4 days; trametinib 1.0 mg/kg, ALT-803 0.2 mg/kg one dose
Brpkp110 tumors [3] = experiment: Ki-67 staining of Brpkp110 tumors; type: in vivo, mouse; conditions: 1.0 mg/kg days 7-9
[4] = tested on: Lewis Lung Carcinoma (LLC) cells; experiment: LLC cell proliferation, MTS assay; type: cell-based, mouse
LLC tumors = experiment: LLC tumor progression in mice; type: in vivo, mouse
Ly6C+ MDSCs = experiment: Flow cytometry of Ly6C+ MDSCs in subcutaneous LLC tumors; type: in vivo, mouse; conditions: 1.0 mg/kg days 7-9
MDSCs = experiment: In vitro MDSC differentiation from mouse bone marrow; type: cell-based; conditions: 200 nM
osteopontin (SPP1) = experiment: LC-MS/MS of culture supernatants from Brpkp110 cells; type: cell-based, mouse; conditions: 200 nM, 40 hrs
osteopontin = experiment: Osteopontin in plasma of Brpkp110-bearing mice (ELISA); type: in vivo, mouse; conditions: short-term (3 day) treatment
Brpkp110 tumors [5] = tested on: Brpkp110 tumors

For `CC(=O)Nc1cccc(-n2c(=O)n(C3CC3)c(=O)c3c(Nc4ccc(I)cc4F)n(C)c(=O)c(C)c32)c1` [trametinib], the “inhibiting the in vitro proliferation of human T cells” value (human T cells [1]) was “quite potent”, the “proliferation of human T cells in response to aAPC coated with agonistic CD3 and CD28 antibodies” value (human T cells [2]) was “Comparable results” and the “proliferation of OT-I T cells in vivo” value (OT-I T cells) was “proliferated significantly less”. For the same compound, the “Ki-67 staining in Brpkp110 tumors in vivo” value (Brpkp110 tumors [3]) was “did not significantly reduce”, the “sensitivity of LLC cells in vitro” value [4] was “very sensitive” and the “disease progression, subcutaneous LLC tumors” value (LLC tumors; gavage once daily day 3-13) was “significantly reduced disease progression”. The “tumor progression, intraperitoneal LLC tumors” value (LLC tumors; gavage once daily day 4-14) was “did not find a reduction in tumor progression”, the “Ly6C+ MDSCs in subcutaneous LLC tumors” value (Ly6C+ MDSCs) was “corresponding reductions” and the “MEK signaling in myeloid precursors differentiated with Brpkp110 conditioned media” value (MDSCs) was “reduced MEK signaling”. The “differentiation of Ly6C+ MDSCs from bone marrow in response to GM-CSF and IL-6” value (MDSCs; 4 days) was “dramatically impaired”, the “effects on Ly6G+ MDSCs differentiated from bone marrow” value (MDSCs; 4 days) was “much weaker effects” and the “CSF1, CCL2, and CX3CL1 in Brpkp110 supernatants” value (osteopontin (SPP1)) was “decreased”. The “tumor-driven increase of osteopontin in plasma” value (osteopontin) was “abrogated”, the “tumor growth / anti-tumor activity upon depletion of CD8α+ cells” value (Brpkp110 tumors [5]; anti-CD8a vs irrelevant IgG) was “significantly reduced” and the “growth of Brpkp110 tumors” value (Brpkp110 tumors [5]; trametinib 1.0 mg/kg oral gavage days 3-13, ALT-803 0.2 mg/kg i.p. days 3, 8, 13) was “significantly reduced the growth”.
